This is one part of the list. Single values are uncertain here, since repeats match poorly.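 Free-swimming zebrafish larvae were scored for O-bend response probability to dark flashes (naive: first five; training: remaining flashes of four 60-flash blocks; test: later 60-flash block) and for turning toward alternating leftward/rightward LED motion (OMR). Six treated larvae were compared with sixty 0.1% DMSO controls; |SSMD|≥2 defined a hit.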
tested on: Danio rerio larvae (5 dpf, TLF); experiment: Prob-Test (SSMD vs DMSO vehicle); higher = higher than vehicle (e.g. higher dark-flash O-bend response probability, or better optomotor performance); conditions: 10 µM; pre-incubation: 30-90 min

Row | Structure (SMILES) | Prob-Test
1 | CC[C@@H]1OC(=O)[C@H](C)[C@@H](O[C@H]2C[C@@](C)(OC)[C@@H](O)[C@H](C)O2)C(C)[C@@H](O[C@@H]2O[C@H](C)C[C@H](N(C)C)[C@H]2O)[C@](C)(O)C[C@@H](C)CN(C)[C@H](C)[C@@H](O)[C@]1(C)O.O.O (stereo partly specified) [Azithromycin Dihydrate] | -0.287
2 | OC[C@H]1O[C@@H](Oc2ccc(O)cc2)[C@H](O)[C@@H](O)[C@@H]1O [Arbutin] | 0.427
3 | C#Cc1cccc(Nc2ncnc3cc4c(cc23)OCCOCCOCCO4)c1 [Icotinib] | -0.45
4 | O=C1C(=O)N(Cc2ccc(Cl)c(Cl)c2)c2ccccc21 [Apoptosis Activator 2] | 0.182
5 | Nc1cccc2c1C(=O)N(C1CCC(=O)NC1=O)C2=O (stereo unspecified) [Pomalidomide] | -0.268
6 | CC(C)NCC(O)c1cc(O)cc(O)c1.CC(C)NCC(O)c1cc(O)cc(O)c1.O=S(=O)(O)O (stereo unspecified) [Metaproterenol Sulfate] | -0.0368
7 | Cn1cc(-c2cnn3c(N)c(Br)c([C@@H]4CCCNC4)nc23)cn1 | 0.0678
8 | COc1ccc2c(c1)c(CC(=O)O)c(C)n2C(=O)c1ccc(Cl)cc1 [Indomethacin] | -0.674
9 | CN(C)CC(c1ccc(O)cc1)C1(O)CCCCC1.O=C(O)CCC(=O)O (stereo unspecified) [Desvenlafaxine Succinate] | -0.45
10 | Cc1cc(NC(=O)Nc2ccc(N(C)C)cc2)c2cc(F)cc(F)c2n1 | -0.639
11 | O=C([O-])C[C@H](O)C[C@H](O)C=Cc1c(C2CC2)nc2ccccc2c1-c1ccc(F)cc1.O=C([O-])C[C@H](O)C[C@H](O)C=Cc1c(C2CC2)nc2ccccc2c1-c1ccc(F)cc1.[Ca+2] [Pitavastatin Calcium] | -1.24

As entered above:
Prob-Test, C#Cc1cccc(Nc2ncnc3cc4c(cc23)OCCOCCOCCO4)c1 [Icotinib] is entered as -0.45
Prob-Test, O=C([O-])C[C@H](O)C[C@H](O)C=Cc1c(C2CC2)nc2ccccc2c1-c1ccc(F)cc1.O=C([O-])C[C@H](O)C[C@H](O)C=Cc1c(C2CC2)nc2ccccc2c1-c1ccc(F)cc1.[Ca+2] [Pitavastatin Calcium] is entered as -1.24
